Source: PubChem BioAssay AID312 (DTP/NCI, 2004)
The list does not hold the whole screen: it is rich in T/C values a quarter to a half above the control, in often repeated tests (any T/C) and in doses without a T/C. Further doses and runs are listed elsewhere. T/C gives the treated animals as a percentage of the vehicle group. Some doses have a count of surviving animals in place of a T/C: the source files T/C as zero there, which appears to mark a toxic dose or a test without result, not a measured value. Some doses without a T/C left all or most animals alive at the check, yet need not have been tolerated: the source hardly ever lists a survival T/C far under the control, and the zero likely stands for such cases as well. Counts of survivors are from the toxicity check (mostly the fifth day) where no day follows; animals may have died later. Schedule codes are those of the source, read here as Q, the interval in days (D) or hours (H), X, the number of doses.

Test system: BDF1 mice, C1498 leukemia ip, median survival T/C
Assay: NCI In Vivo Anticancer Drug Screen. Data for tumor model C1498 Myeloid Leukemia (intraperitoneal) in B6D2F1 (BDF1) mice
Settings: T/C endpoint: median survival time, schedule: Q01DX010 (ip), vehicle: saline, higher T/C = longer survival
Description: The antitumor activity of compounds was measured in mice bearing transplantable tumors. Survival or tumor size were measured and the results are expressed as the measurement made in the treated group (T) divided by the measurement made in the vehicle treated control group (C). The tumor model used in this assay is C1498 Myeloid Leukemia (intraperitoneal) in B6D2F1 (BDF1) mice

O=c1c(O)cccc2cc(O)c(O)c(O)c12
survivor count (dose: 100.0 mg/kg/injection): 6 of 6 | survivor count (dose: 200.0 mg/kg/injection): 6 of 6
